Among all 52,000 sequences or so, about 210 (0.4%) were called active.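 How the source made its calls: active means gene whose silencing raises cell survival under the drug, median off-target-corrected z-score across its silencing RNAs 2 or more; inactive means the rest.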 The list shows a part of the results.

A short description of the assay: Resistance to Poly (ADP-Ribose) Polymerase inhibitor: Gene Identification via Genome-wide siRNA Screen. The conditions noted are these: mouse BRCA2 R2336H ES cells, olaparib, CellTiter-Glo viability; stronger effect = higher value. The essentials: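 Mouse BRCA2 R2336H ES cells were reverse-transfected with siRNA (20 nM final), treated at 48 h with 500 nM olaparib, and read by CellTiter-Glo after 72 h. Scores: MAD-based z per siRNA, median per gene, seed off-target correction.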
In the case of GCAACCGAAGUAACAUAUATT against RbmY1a1, the z-score was inactive: -1.77.
To GAAUCGGAGCAGUGUGUCATT against Tff2 belongs inactive: -1.41; to GGGAUGGACUUAUACCUGUTT against V1rh12, inactive: 0.851; to CCCUACGAAGUACCAACUUTT against Il18bp, inactive: -2.08.
The value for GCAAUAAGGUGAAGUCAGATT against Mbd2 was inactive: 1.29; that for GGCUUUUGUCAAACAGCAUTT against Ins1 was inactive: -0.285.
Regarding GGAACUGGGUUCAUCCACATT against Snrpb2, the z-score is inactive: -0.975.
The value for GCUAGAGUCCAUAAACAAUTT against Olfr1148 was inactive: -0.417; that for CCUUAUAACUCUUACGUUUTT against Mak3 was inactive: -0.589; that for GGAUGGACUUCUGUAUCACTT against Cdh17 was inactive: 1.92.
To GGCCAAGGAGAGCAUUCGATT against Vps4a belongs inactive: 1.19; to GGUCAUGUACAAGAAAACCTT against AY100450, inactive: 0.95; to “CCGAAGUGGAAUAAAUUGUTT against 4931433A13Rik”, inactive: -0.0409.
To GGAAACCUAUGAGAAUAUCTT against Kpnb3 belongs inactive: 0.202; to GGCAGACAAGGAUUCCUUGTT against Mrpl38, inactive: 0.971; to “GGGCAAAUUCUCAAGAAAATT against 4933431N12Rik”, inactive: -0.331.
For GGACUUACCUUUAACCAACTT against Slc30a4, the z-score is inactive: -0.219.
For “GGCAUAUUCUUUUCAACACTT against 1110067L22Rik”, the z-score is inactive: -0.537.
The value for GGAAACAGCAUCAUCAUGUTT against Snrpg was inactive: -2.11.
As for GGGAUGCUCUGAACAUUGATT against Anxa2, the z-score is inactive: 0.826.
The value for GUCCUCUUCUGGUUCUCAGTT against V1ra7 was inactive: 2.8; that for GGACAACCAAAAUGCAUUUTT against Zic3 was inactive: -1.04.
The value for UGUCUGGAUGUCUAGGUGATT against MGC65558 was inactive: -0.603.
In the case of GCCGUCAGACAAGGAGGAATT against Baiap1, the z-score was inactive: 0.647.
As to “GGAAAUGUUGAAUCUUGCUTT against A930031D07Rik”, the z-score was inactive: 0.774.
The value for GCCAACUGAAGAUCCGUGUTT against Pgm5 was inactive: -0.481; that for GGUGGUUGUAAGUAAGCUGTT against Lgals3 was inactive: -2.21.
The value for GGGAAGACAACAAUUCUAUTT against Arf1 was inactive: 0.522.
To GGAGUUCUGCAUCUACAACTT against Syngr1 belongs inactive: 0.549; to GAUAACCAUGUUCUUUGGATT against Defcr-rs2, inactive: 0.451; to GGGUGCUAAAUCUUUUUGATT against Ccnf, inactive: -0.453.
Take “GGGACUAGAUCAUUUUCUGTT against D630028G08Rik”: the z-score is inactive: 1.67.
On to GGCAUUGGUUCCUACAAGATT against Gm773, for which the z-score was inactive: 0.502.
For CCCUGUCACAACAUUCUCATT against Olfr1426, the z-score was inactive: -0.363.
Consider GGAAUAUGUCACCAACAAGTT against Akap8l, for which the z-score was inactive: 2.95.
For GGAGUUACAUGGCUCUUGATT against Gpr44, the z-score is inactive: -0.555.
The value for GCUAUUUAGUUAGUUGUGUTT against Acbd3 was inactive: 0.191.
To GCCAACAAGUUUAUCACUATT against Hoxb13 belongs inactive: -0.492.
To GGAGGAAAAGUCUUGUAGUTT against Armcx1 belongs inactive: -0.548; to GGAGAAUAUUCUCUGUGGATT against D6Ertd32e, inactive: -1.08.
As to GCAUCCAUGCUAUGGAACCTT against LOC434768, the z-score was inactive: 0.997.
Consider GGAAUACUUAUAGCUGACUTT against Rdhe2, for which the z-score is inactive: 0.32.
For CUCACUUCCCUAUCCAGAGTT against BC026645, the z-score was inactive: -1.3.
In the case of “GCUAAUUGUUCACUAAAGGTT against 1700029H14Rik”, the z-score is inactive: 0.0282.
On to GAUGGACAAUCUCAUGGAUTT against Pcp2, for which the z-score is inactive: 0.793.
For GGCGAUCAUAAACAGCAAUTT against Smyd3, the z-score is inactive: 1.85.
To GCACAGCUAACGGAAAACATT against H2-Ke2 belongs inactive: -0.0245; to GUUGGCCAGAAUUCUGAAATT against Lzp-s, inactive: -0.145.
Take CCAAGCAUUACAGAAACCATT against Olfr1148: the z-score is inactive: -0.7.
As to “GGCUUGCCAUCGUAAAUCCTT against 1700019M22Rik”, the z-score was inactive: -0.469.
The value for GCAUUGUAAAGUUUGUACATT against Dnaja2 was inactive: 0.571; that for GGCCGAAAAUUUGUUUGUATT against Pcdhga9 was inactive: 1.18; that for CCCUGUGACUCCAAAAUGATT against Dbh was inactive: 0.352.
The value for “GGGCAUAUUCACUUUAAAATT against 1200002N14Rik” was inactive: -0.264; that for GGCCAGGAAAGAUUUCGAATT against Rab1 was inactive: -1.3; that for CGGCAGAGCCAGAUAUGAUTT against Zfp98 was inactive: -0.884.
Turning to “CCCUUUGAACUUUCCACACTT against A430060F13Rik”, the z-score is inactive: -0.202.
The value for “GGGCCUUUAGUCCUCAAAGTT against 1810042K04Rik” was inactive: 0.6; that for GGCUUCGUAGCUUUACAAATT against Abca6 was inactive: 0.0706.
The value for GUAAUUCACAGCCUCUCCGTT against Pitx3 was inactive: -0.548.
GGUAUCUUCAAGUACAUGATT against BC011426: the z-score was inactive: 0.138.
The value for CGCACACGAUGUGGAAAUGTT against Ptger1 was inactive: 0.509.
With “GGAGUUAAUCAAAGCUUUGTT against 2610304G08Rik”, the z-score is inactive: -0.906.
The value for “GCUUAACGAGCCUUAGAAATT against 4632412E09Rik” was inactive: -1.48; that for GGGCAGUGAGAAGAGAUUCTT against H2-Q1 was inactive: 0.166.
Regarding CCAACAAUGUUUAAAGGAUTT against Olfr476, the z-score was inactive: -0.279.
On to GGCUUCUCUCUAUGUAUUCTT against Tas2r116, for which the z-score was inactive: -0.22.
As for CGGCAUCAUAUUGUGCGAATT against Cnn3, the z-score is inactive: -0.119.
To GCAGAGGGCAACUCGUAAGTT against LOC547347 belongs inactive: 1.92; to CCUUGUCAAUCAUUAUCUGTT against Olfr923, inactive: 1.22; to GCUCCAAUCGGUGAUGUCUTT against Pla2g7, inactive: -3.63.
The value for “GGAUCCCUCAUUCGUCCCUTT against D430018E03Rik” was inactive: -1.38.
To GGAUGUUUUAACUUGGAAATT against Sema5a belongs inactive: -0.0973; to GGUCACUUUAGAUUUUGAATT against Stard13, inactive: -0.935.
CGUGAUGUGGGAAAUGGCATT against Avpr2: the z-score is inactive: 1.4.
The value for “GGAGUUCUUCAUUUACCGATT against E330009P21Rik” was inactive: -0.144.
As to GGAAAAGGAAAGCUUUAGUTT against Fut4, the z-score is inactive: 0.511.
Take “GGUGAUCCUCAUCAUCAGUTT against 2400010G15Rik”: the z-score is active: 2.76.
To CCGGCUGUACAAAGAGAAUTT against Rnf34 belongs inactive: -0.365; to GCCCAACCCGAUUUGCAGATT against Cyp4a10, inactive: -0.83.
Turning to GGGUGGGUUUGAGGUGUCUTT against Set, the z-score is inactive: 0.395.
Take “GGAACUUCGUCAUCAACAUTT against 1110025I09Rik”: the z-score is inactive: 0.662.
Take CCCAGCACAAGUGUAAGAUTT against Fzd10: the z-score is inactive: -0.626.
In the case of GGCUUAAAAUAAAAGUGCCTT against Nans, the z-score is inactive: -0.502.
The value for GCAGCUAGUCUUUUAGGUATT against Nasp was inactive: 0.759; that for CCUGGUAUGCCAAACUUGATT against Ppp2r4 was inactive: 0.828; that for GGUUCUGGAAGUCUAAGAATT against Zmynd11 was inactive: 1.63.
The value for GGCAAUACGUAACAUGCCATT against Slc6a4 was inactive: 1.13; that for GGGUCAUUGCUUAGAAACATT against Tcta was inactive: -1.85.
Consider GGUGAAAUACGAUUAUGAUTT against Galnt12, for which the z-score was inactive: 0.806.
The value for GGACAAGGCCACUUAAAUCTT against Hoxc8 was inactive: -0.314; that for CCCAUAAUCUCCGAUAUCATT against Hsf1 was inactive: 1.28.
The value for “GGGCAUCCUAUACAAGAAGTT against B230113C15Rik” was inactive: 1.39; that for GGCUCACAUCUCCUUACAUTT against Klrg1 was inactive: -0.024; that for GCUGAAAAACAAGACUUCGTT against Gabrg1 was inactive: 0.431.
Take GCACGUACCAGUAUCCAGATT against Dnase1l2: the z-score is inactive: 0.813.
The value for “GCAGCUAAUACAAACCUUATT against A630086M08Rik” was inactive: -0.371.
The value for “CCGGUUAUAGCGAACAUUUTT against 2900057D21Rik” was inactive: -1.51; that for “GGAGUCUGAAGAAUACUCUTT against 4732416F18” was inactive: -1.16.
The value for GGAACCUACCUUUGACCCATT against Tbc1d17 was inactive: 0.444.
Consider GGAUCUCUGGGAAAUCUGCTT against Tap2, for which the z-score is inactive: 2.46.
As to GGUUAUUCUUCUGGUGGUGTT against Olfr1234, the z-score is inactive: -1.25.
As to GGAGAUGACUCUUUCUGUATT against Olfr301, the z-score is inactive: 0.833.
On to GGCCACAGAGCCAAAGAUUTT against Cdca7, for which the z-score was inactive: -1.

The record behind these values is PubChem BioAssay AID1347423 (Functional Genomics Laboratory (NCATS/FGL), 2020).
